The list shows a part of the results.
Tests used:
Assay in all cases: log2 fold change, soluble protein after heating vs DMSO (PISA); higher = thermal stabilisation; K562 cells, 10 uM, 30 min; active = over 0.2 and 3.5 SD of the protein, either way, in both replicates (recomputed)
[1] = compound: CS(=O)(=O)c1ccc(-c2cnc(N)c(C(=O)Nc3ccccc3)n2)cc1
Method in brief: (§1)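 For each measurement, 10 μM compound was applied for 30 min to K562 cells at 2×10^6 cells/mL. Aliquots were heated for 3 min across 48°C-58°C, pooled, and extracted in PBS with 0.5% NP-40 at 4°C; the supernatant after 21,000xg for 90 min was soluble protein. This was quantified by TMTpro 16plex LC-MS/MS with channel sums equalised, and thermal stability was reported relative to control samples from duplicates, on a log2 fold-change scale.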

Amino acid sequences for entries named in this document (tags omitted). A change or cut given only in a name is not applied to a line headed by its entry.
UniProt Q96E22: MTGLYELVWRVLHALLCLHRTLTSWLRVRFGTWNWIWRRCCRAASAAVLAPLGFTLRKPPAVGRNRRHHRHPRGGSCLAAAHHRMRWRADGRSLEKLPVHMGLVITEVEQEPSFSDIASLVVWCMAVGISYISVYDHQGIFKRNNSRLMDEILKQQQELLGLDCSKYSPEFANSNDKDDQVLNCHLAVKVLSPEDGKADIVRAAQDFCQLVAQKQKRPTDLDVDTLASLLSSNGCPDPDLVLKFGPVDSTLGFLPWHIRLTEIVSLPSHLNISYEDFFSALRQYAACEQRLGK
UniProt Q9H8K7: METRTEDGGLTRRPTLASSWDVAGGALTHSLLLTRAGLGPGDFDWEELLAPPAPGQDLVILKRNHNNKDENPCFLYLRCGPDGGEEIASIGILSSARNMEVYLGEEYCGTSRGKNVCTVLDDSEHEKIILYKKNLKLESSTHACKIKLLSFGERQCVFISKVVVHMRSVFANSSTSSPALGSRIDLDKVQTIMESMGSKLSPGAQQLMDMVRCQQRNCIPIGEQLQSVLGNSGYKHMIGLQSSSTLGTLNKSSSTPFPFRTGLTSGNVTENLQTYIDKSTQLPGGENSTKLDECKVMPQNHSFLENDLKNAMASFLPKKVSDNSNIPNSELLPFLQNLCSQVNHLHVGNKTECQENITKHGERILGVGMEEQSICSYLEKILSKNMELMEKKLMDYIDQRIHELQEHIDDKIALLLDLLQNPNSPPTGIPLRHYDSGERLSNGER
UniProt P53384: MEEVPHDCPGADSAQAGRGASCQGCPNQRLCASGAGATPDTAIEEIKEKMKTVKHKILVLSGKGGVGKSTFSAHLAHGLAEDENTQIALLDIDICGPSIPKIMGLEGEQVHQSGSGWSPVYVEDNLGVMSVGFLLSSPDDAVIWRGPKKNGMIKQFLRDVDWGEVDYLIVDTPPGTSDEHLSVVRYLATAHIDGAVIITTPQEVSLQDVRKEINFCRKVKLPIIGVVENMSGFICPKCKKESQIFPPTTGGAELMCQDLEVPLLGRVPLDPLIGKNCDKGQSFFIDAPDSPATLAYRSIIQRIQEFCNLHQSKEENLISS
UniProt O15504: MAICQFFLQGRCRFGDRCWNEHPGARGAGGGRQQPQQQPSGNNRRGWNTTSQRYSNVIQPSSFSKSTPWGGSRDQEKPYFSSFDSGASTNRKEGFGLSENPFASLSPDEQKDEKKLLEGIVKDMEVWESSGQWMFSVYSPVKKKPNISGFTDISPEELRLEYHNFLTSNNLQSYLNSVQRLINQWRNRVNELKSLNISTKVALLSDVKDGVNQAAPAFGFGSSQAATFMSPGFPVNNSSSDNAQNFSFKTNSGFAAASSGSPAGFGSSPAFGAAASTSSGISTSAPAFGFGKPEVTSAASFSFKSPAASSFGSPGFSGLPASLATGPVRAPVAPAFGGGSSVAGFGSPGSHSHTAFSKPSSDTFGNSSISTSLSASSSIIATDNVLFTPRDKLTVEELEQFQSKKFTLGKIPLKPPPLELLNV
UniProt Q9BSD7: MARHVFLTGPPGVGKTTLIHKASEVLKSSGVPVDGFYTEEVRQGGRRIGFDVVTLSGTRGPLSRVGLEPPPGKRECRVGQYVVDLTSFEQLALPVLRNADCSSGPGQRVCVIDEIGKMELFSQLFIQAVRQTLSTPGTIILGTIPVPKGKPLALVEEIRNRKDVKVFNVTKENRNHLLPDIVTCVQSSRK
UniProt P35658: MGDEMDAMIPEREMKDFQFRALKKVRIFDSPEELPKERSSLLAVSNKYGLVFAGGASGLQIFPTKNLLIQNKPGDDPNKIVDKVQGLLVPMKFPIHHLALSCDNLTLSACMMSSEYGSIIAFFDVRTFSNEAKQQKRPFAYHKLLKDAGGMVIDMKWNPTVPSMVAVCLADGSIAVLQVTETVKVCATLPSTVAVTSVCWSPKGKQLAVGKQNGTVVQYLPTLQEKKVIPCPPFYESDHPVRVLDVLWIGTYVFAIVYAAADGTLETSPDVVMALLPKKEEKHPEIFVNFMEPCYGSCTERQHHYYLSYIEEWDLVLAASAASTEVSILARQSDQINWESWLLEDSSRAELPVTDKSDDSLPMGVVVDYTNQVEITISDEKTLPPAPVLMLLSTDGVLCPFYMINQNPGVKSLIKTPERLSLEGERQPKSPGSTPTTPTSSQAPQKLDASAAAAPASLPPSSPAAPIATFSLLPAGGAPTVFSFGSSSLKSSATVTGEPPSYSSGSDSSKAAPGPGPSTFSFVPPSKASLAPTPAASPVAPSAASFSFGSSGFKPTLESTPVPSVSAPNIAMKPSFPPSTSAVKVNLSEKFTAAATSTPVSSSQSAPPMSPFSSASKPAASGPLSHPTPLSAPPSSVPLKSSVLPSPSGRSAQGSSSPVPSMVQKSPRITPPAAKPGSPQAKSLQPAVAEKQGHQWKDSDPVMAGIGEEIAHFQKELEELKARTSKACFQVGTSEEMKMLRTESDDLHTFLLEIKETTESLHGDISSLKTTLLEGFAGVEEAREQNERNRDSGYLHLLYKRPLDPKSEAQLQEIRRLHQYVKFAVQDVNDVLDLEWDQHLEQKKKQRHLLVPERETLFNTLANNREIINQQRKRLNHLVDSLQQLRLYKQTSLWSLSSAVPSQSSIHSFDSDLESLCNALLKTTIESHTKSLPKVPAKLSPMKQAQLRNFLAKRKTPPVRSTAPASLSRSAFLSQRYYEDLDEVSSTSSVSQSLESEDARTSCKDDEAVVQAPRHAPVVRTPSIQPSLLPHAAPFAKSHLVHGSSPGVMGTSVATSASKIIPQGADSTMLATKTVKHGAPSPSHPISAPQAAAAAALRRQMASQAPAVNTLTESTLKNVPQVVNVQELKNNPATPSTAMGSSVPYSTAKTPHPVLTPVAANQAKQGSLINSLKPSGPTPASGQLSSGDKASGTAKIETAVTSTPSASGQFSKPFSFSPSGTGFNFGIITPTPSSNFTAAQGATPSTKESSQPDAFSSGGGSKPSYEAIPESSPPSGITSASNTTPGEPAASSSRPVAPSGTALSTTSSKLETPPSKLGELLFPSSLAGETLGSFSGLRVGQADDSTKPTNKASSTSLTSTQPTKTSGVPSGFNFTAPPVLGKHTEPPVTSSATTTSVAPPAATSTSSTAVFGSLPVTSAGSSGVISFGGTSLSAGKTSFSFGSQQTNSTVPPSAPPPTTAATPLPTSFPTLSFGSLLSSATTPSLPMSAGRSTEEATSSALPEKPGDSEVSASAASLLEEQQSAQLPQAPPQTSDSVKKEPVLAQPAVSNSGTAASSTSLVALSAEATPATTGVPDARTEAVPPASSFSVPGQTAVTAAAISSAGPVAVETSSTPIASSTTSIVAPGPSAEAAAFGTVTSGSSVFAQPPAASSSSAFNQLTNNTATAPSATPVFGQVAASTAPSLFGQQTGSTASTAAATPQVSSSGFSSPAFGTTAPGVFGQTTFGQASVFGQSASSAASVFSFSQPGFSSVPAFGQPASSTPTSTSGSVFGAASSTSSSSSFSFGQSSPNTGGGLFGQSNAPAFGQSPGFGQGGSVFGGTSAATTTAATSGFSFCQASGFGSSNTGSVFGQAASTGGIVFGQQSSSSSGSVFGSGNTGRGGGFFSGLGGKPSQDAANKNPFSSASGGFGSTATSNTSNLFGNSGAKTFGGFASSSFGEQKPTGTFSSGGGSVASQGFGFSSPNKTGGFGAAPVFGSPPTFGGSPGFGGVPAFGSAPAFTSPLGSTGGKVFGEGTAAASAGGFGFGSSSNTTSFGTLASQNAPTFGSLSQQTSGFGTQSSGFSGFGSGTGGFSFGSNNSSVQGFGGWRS
UniProt Q6PK18: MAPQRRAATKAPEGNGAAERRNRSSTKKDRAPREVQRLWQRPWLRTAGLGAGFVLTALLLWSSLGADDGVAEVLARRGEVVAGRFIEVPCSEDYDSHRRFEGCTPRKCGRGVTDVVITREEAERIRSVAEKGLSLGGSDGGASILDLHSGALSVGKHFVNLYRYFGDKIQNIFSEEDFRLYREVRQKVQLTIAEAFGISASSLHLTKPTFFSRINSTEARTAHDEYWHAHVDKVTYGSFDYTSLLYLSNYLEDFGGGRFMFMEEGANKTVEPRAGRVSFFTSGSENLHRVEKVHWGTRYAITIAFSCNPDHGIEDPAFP
UniProt O60502: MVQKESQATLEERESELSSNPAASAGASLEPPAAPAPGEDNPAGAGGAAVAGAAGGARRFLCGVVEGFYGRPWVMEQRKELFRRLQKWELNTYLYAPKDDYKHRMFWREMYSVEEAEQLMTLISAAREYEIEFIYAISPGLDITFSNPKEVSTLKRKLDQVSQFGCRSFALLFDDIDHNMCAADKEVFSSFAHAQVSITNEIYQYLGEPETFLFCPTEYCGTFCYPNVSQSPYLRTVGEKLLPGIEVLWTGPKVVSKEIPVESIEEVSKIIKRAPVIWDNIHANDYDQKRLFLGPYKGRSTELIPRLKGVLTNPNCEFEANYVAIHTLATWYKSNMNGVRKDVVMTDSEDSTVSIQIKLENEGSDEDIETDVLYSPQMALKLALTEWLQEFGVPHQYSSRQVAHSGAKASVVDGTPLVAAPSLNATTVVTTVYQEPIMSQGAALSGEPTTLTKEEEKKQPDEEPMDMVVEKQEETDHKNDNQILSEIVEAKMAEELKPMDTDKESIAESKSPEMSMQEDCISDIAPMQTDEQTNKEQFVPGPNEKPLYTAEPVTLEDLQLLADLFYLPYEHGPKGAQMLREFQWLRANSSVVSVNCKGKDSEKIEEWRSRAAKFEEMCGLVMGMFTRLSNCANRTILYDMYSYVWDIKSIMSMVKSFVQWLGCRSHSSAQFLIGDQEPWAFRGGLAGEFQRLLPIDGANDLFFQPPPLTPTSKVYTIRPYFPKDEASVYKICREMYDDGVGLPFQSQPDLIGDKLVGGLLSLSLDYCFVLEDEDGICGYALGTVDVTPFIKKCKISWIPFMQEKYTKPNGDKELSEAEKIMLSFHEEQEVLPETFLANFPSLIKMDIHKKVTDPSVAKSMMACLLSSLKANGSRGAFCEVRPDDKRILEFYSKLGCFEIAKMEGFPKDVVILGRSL
UniProt Q92882: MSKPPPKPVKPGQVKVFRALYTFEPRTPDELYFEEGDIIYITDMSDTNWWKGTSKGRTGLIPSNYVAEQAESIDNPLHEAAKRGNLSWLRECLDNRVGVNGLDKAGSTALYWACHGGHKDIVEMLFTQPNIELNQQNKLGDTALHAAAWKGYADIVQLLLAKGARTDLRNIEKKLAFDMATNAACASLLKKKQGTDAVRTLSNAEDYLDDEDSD
UniProt Q9Y5A7: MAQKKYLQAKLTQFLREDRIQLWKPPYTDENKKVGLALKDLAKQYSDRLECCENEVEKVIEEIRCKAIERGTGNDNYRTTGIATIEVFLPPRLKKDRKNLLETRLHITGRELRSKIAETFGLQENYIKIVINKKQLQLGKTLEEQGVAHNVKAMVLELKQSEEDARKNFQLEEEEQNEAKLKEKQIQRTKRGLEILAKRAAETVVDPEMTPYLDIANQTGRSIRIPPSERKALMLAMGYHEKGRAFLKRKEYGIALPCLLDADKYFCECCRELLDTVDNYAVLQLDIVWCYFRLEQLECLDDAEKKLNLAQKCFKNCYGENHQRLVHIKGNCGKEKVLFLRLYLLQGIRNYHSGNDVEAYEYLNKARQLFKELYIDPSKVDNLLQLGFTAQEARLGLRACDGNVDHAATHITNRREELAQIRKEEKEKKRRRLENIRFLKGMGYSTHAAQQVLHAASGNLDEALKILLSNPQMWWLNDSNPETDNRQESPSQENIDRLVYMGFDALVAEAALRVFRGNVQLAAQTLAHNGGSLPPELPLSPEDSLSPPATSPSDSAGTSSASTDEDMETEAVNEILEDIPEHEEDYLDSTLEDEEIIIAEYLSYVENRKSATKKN
UniProt Q9NZJ9: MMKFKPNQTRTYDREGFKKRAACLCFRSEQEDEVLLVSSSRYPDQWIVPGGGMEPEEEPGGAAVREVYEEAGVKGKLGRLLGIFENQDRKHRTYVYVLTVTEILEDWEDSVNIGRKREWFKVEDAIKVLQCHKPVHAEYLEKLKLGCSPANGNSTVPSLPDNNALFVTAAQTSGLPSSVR
UniProt Q9NX40: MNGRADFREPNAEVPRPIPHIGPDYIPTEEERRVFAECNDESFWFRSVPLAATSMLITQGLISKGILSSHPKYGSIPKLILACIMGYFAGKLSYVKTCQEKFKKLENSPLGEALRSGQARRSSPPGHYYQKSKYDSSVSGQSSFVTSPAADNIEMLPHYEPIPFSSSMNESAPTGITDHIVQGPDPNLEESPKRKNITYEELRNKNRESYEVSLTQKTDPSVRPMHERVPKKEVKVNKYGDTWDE
UniProt Q9BRJ7: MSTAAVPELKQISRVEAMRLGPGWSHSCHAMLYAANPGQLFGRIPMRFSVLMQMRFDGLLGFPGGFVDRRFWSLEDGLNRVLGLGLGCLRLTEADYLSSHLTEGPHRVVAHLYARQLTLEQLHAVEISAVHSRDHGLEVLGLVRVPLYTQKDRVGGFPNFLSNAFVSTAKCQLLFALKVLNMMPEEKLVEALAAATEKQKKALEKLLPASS

crizotinib = compound: C[C@@H](Oc1cc(-c2cnn(C3CCNCC3)c2)cnc1N)c1c(Cl)ccc(F)c1Cl [crizotinib]
Method in brief: as §1

[2] = compound: C[C@@H]1COCCN1C2=NC(=NC(=C2)C3(CC3)S(=O)(=O)C)C4=C5C=CNC5=CC=C4
Method in brief: as §1

[3] = compound: C[C@H](C1=CC=C(C=C1)C(=O)NC2=C3C=CNC3=NC=C2)N
Method in brief: as §1

duvelisib = compound: C[C@H](Nc1ncnc2nc[nH]c12)c1cc2cccc(Cl)c2c(=O)n1-c1ccccc1 [duvelisib]
Method in brief: as §1

gandotinib = compound: Cc1cc(Nc2cc(CN3CCOCC3)c3nc(C)c(Cc4ccc(Cl)cc4F)n3n2)n[nH]1 [gandotinib]
Method in brief: as §1

tozasertib = compound: Cc1cc(Nc2cc(N3CCN(C)CC3)nc(Sc3ccc(NC(=O)C4CC4)cc3)n2)n[nH]1 [tozasertib]
Method in brief: as §1

[4] = compound: Cc1cc(SCc2sc(-c3ccc(C(F)(F)F)cc3)nc2C)ccc1OCC(=O)O
Method in brief: as §1

doramapimod = compound: Cc1ccc(-n2nc(C(C)(C)C)cc2NC(=O)Nc2ccc(OCCN3CCOCC3)c3ccccc23)cc1 [doramapimod]
Method in brief: as §1

ispinesib = compound: Cc1ccc(C(=O)N(CCCN)[C@@H](c2nc3cc(Cl)ccc3c(=O)n2Cc2ccccc2)C(C)C)cc1 [ispinesib]
Method in brief: as §1

Measured: log2 fold change

NSRP1 (UniProt Q9H0G5)
inactive: [1] -0.045 | crizotinib 0.012 | [2] -0.193 | [3] 0.138 | duvelisib -0.061 | gandotinib 0.085 | tozasertib -0.051 | [4] -0.012 | doramapimod 0.086 | ispinesib -0.115

NUP88 (UniProt Q99567)
inactive: [1] 0.049 | crizotinib -0.142 | [2] -0.038 | [3] 0.101 | duvelisib -0.067 | gandotinib -0.007 | tozasertib 0.037 | [4] 0.107 | doramapimod 0.063 | ispinesib 0.053

NUP62 (UniProt P37198)
inactive: [1] -0.002 | crizotinib -0.018 | [2] -0.013 | [3] 0.028 | duvelisib -0.012 | gandotinib -0.029 | tozasertib 0.042 | [4] 0.067 | doramapimod 0.008 | ispinesib -0.025

NUDT5 (UniProt C9JYY9)
inactive: [1] 0.043 | crizotinib -0.013 | [2] -0.071 | [3] 0.225 | duvelisib -0.01 | gandotinib 0.046 | tozasertib 0.001 | [4] -0.057 | doramapimod -0.138

NUS1 (UniProt Q96E22)
inactive: [1] -0.045 | crizotinib 0.073 | [2] 0.004 | [3] 0.012 | duvelisib 0.077 | gandotinib -0.058 | tozasertib 0.025 | [4] 0.034 | doramapimod -0.004 | ispinesib 0.043

OTC (UniProt P00480)
inactive: [1] 0 | crizotinib 0.038 | [2] 0.147 | [3] 0.346 | duvelisib 0.25 | gandotinib -0.115 | tozasertib -0.119 | [4] -0.088 | doramapimod 0.006 | ispinesib -0.166

PAAT (UniProt Q9H8K7)
inactive: [1] 0.053 | crizotinib 0.115 | [2] -0.005 | [3] -0.006 | duvelisib 0.055 | gandotinib -0.044 | tozasertib 0.022 | [4] -0.092 | doramapimod -0.045 | ispinesib -0.011

NUBP1 (UniProt P53384)
inactive: [1] 0.064 | crizotinib 0.029 | [2] 0.11 | [3] -0.05 | duvelisib 0.049 | gandotinib -0.037 | tozasertib -0.01 | [4] 0.076 | doramapimod 0.022 | ispinesib -0.008

2 neighbouring records already listed, quoted:
NUDT5 (UniProt C9JYY9)
inactive: [1] 0.043 | crizotinib -0.013 | [2] -0.071 | [3] 0.225 | duvelisib -0.01 | gandotinib 0.046 | tozasertib 0.001 | [4] -0.057 | doramapimod -0.138

NUS1 (UniProt Q96E22)
inactive: [1] -0.045 | crizotinib 0.073 | [2] 0.004 | [3] 0.012 | duvelisib 0.077 | gandotinib -0.058 | tozasertib 0.025 | [4] 0.034 | doramapimod -0.004 | ispinesib 0.043

Continued.

NUP42 (UniProt O15504)
inactive: [1] 0 | crizotinib -0.027 | [2] -0.812 | [3] 0.415 | duvelisib -0.141 | gandotinib 0.304 | tozasertib 0.073 | [4] -0.012 | doramapimod 0.392 | ispinesib -0.167

NUBP2 (UniProt Q9Y5Y2)
inactive: [1] 0.013 | crizotinib -0.065 | [2] 0.029 | [3] -0.013 | duvelisib 0.048 | gandotinib 0.089 | tozasertib -0.019 | [4] 0.039 | doramapimod -0.011 | ispinesib 0.005

NTPCR (UniProt Q9BSD7)
inactive: [1] 0.049 | crizotinib -0.165 | [2] 0.05 | [3] -0.019 | duvelisib 0.037 | gandotinib -0.155 | tozasertib -0.02 | [4] -0.021 | doramapimod 0.037 | ispinesib -0.054

OTUB1 (UniProt Q96FW1)
inactive: [1] 0.003 | crizotinib -0.111 | [2] 0.033 | [3] -0.075 | duvelisib 0.007 | gandotinib -0.086 | tozasertib -0.012 | [4] 0.021 | doramapimod -0.035 | ispinesib 0.082

NUP214 isoform 5 (UniProt P35658)
inactive: [1] 0.001 | crizotinib -0.141 | [2] -0.159 | [3] 0.232 | duvelisib -0.066 | gandotinib -0.069 | tozasertib 0.044 | [4] 0.135 | doramapimod 0.151 | ispinesib -0.105

NUFIP2 (UniProt Q7Z417)
inactive: [1] -0.042 | crizotinib -0.025 | [2] -0.137 | [3] 0.089 | duvelisib -0.11 | gandotinib 0.118 | tozasertib -0.02 | [4] -0.041 | doramapimod 0.11 | ispinesib -0.088

P4HB (UniProt H7BZ94)
inactive: [1] -0.398

OTUD5 isoform 5 (UniProt Q96G74)
inactive: [1] 0.04 | crizotinib 0.097 | [2] 0.05 | [3] -0.075 | duvelisib -0.027 | gandotinib -0.1 | tozasertib 0.023 | [4] -0.049 | doramapimod -0.017 | ispinesib 0.104

OGFOD3 isoform 2 (UniProt Q6PK18)
inactive: [1] 0.001 | crizotinib 0.027 | [2] 0.005 | [3] 0.078 | duvelisib 0.025 | gandotinib 0 | tozasertib 0.089 | [4] 0.014 | doramapimod 0.014

NT5C (UniProt Q8TCD5)
inactive: [1] 0 | crizotinib 0.035 | [2] 0.061 | [3] -0.02 | duvelisib 0.035 | gandotinib 0.038 | tozasertib -0.044 | [4] -0.04 | doramapimod -0.01 | ispinesib 0.011

OGA (UniProt O60502)
inactive: [1] 0.065 | crizotinib -0.018 | [2] 0.08 | [3] -0.192 | duvelisib 0.05 | gandotinib -0.037 | tozasertib 0.015 | [4] 0.006 | doramapimod -0.005 | ispinesib 0.027

OSTF1 (UniProt Q92882)
inactive: [1] 0.066 | crizotinib -0.031 | [2] 0.023 | [3] 0.023 | duvelisib -0.079 | gandotinib 0.02 | tozasertib 0.023 | [4] 0.017 | doramapimod -0.023 | ispinesib 0.009

NUB1 (UniProt Q9Y5A7)
inactive: [1] -0.01 | crizotinib -0.085 | [2] -0.077 | [3] 0.225 | duvelisib -0.015 | gandotinib -0.072 | tozasertib 0.073 | [4] 0.197 | doramapimod 0.072 | ispinesib -0.098

NUDT4 (UniProt Q9NZJ9)
inactive: [1] 0.057 | crizotinib 0.004 | [2] -0.02 | [3] -0.072 | duvelisib 0.007 | gandotinib -0.055 | tozasertib 0.028 | [4] 0.056 | doramapimod -0.027 | ispinesib -0.016

OCIAD1 (UniProt Q9NX40)
inactive: [1] -0.003 | crizotinib -0.018 | [2] 0.185 | [3] -0.088 | duvelisib 0.01 | gandotinib 0.056 | tozasertib -0.016 | [4] -0.029 | doramapimod -0.025 | ispinesib -0.031

P4HB (UniProt P07237)
inactive: [1] 0.011 | crizotinib 0.072 | [2] 0.004 | [3] -0.039 | duvelisib -0.002 | gandotinib 0.001 | tozasertib -0.006 | [4] -0.031 | doramapimod 0.019 | ispinesib 0.037

OGDH (UniProt Q02218)
inactive: [1] 0.036 | crizotinib 0.034 | [2] 0.013 | [3] 0.126 | duvelisib -0.035 | gandotinib 0.008 | tozasertib 0 | [4] 0.151 | doramapimod 0.025 | ispinesib -0.137

NUCB2 (UniProt P80303)
inactive: [1] 0.014 | crizotinib 0.062 | [2] -0.001 | [3] -0.026 | duvelisib 0.003 | gandotinib 0.014 | tozasertib -0.021 | [4] -0.059 | doramapimod -0.007 | ispinesib 0.019

NUP58 (UniProt Q9BVL2)
inactive: [1] 0.034 | crizotinib 0.009 | [2] -0.017 | [3] 0.026 | duvelisib -0.021 | gandotinib -0.053 | tozasertib -0.009 | [4] -0.043 | doramapimod -0.009 | ispinesib -0.01

NUDT12 (UniProt Q9BQG2)
inactive: [1] 0.048 | crizotinib 0.08 | [2] 0.092 | [3] -0.004 | duvelisib 0.022 | gandotinib 0.045 | tozasertib 0.009 | [4] 0.02 | doramapimod -0.079 | ispinesib 0.034

NUDT16L1 (UniProt Q9BRJ7)
inactive: [1] -0.023 | crizotinib -0.007 | [2] 0.069 | [3] -0.037 | duvelisib 0.025 | gandotinib -0.158 | tozasertib -0.027 | [4] 0.032 | doramapimod 0.044 | ispinesib 0.067

OPLAH (UniProt O14841)
inactive: [1] 0.034 | crizotinib -0.007 | [2] 0.06 | [3] -0.008 | duvelisib 0.031 | gandotinib -0.039 | tozasertib -0.023 | [4] -0.014 | doramapimod 0.021 | ispinesib 0.009

NUP50 (UniProt Q9UKX7)
inactive: [1] -0.031 | crizotinib 0.098 | [2] 0.031 | [3] -0.057 | duvelisib 0.013 | gandotinib 0.085 | tozasertib -0.022 | [4] -0.02 | doramapimod -0.033 | ispinesib 0.003

From the supplement of paper PMC10849652
